{"source": "PubChem BioAssay AID1259281 (Sanger Institute, 2017)", "screen": "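Find knock-downs that kill colorectal cancer cells alone or strengthen targeted drugs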 (primary screen)", "cell system": "human COLO678 colorectal cancer cell line", "knock-down reagent": "siRNA pool against human genes", "conditions": "anchor drugs at fixed doses: BYL719 1 µM, cetuximab 5 µg/ml or trametinib 10 nM; DMSO vehicle for the siRNA-alone arm", "measurement": "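Cell viability compared with non-targeting pool wells, averaged over replicates; knock-down-alone effect also as robust z-score; synergy scores set knock-down plus drug against expected joint effect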", "scale": "robust z-score, siRNA alone: higher = more viable cells; strongly negative means essential", "active means": "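Essential (knock-down alone) when the siRNA-alone robust z-score is below -3; otherwise no change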", "meaning of the calls": "active = essential (knock-down alone); inactive = no change", "note": "In all, the deposit lists 794 reagents; this is a part drawn at random. Of all reagents, 22 (2.8%) got an active call. 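Calls rest on knock-down alone only; drug synergy scores play no part in them.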 Unmarked entries are inactive. Further read-outs or replicates are left out here. Not stated in the record: the amount of reagent, the time to read-out."}
{"gene knocked down": "CNOT1", "robust z-score, siRNA alone": "-3.69 (active)"}
{"gene knocked down": "CRIM1", "robust z-score, siRNA alone": -0.146}
{"gene knocked down": "PRKCSH", "robust z-score, siRNA alone": 0.473}
{"gene knocked down": "PIK3C3", "robust z-score, siRNA alone": 0.473}
{"gene knocked down": "IP6K3", "robust z-score, siRNA alone": 0.473}
{"gene knocked down": "NRAS", "robust z-score, siRNA alone": 0.473}
{"gene knocked down": "DAPK1", "robust z-score, siRNA alone": 0.331}
{"gene knocked down": "MLKL", "robust z-score, siRNA alone": -2.2}
{"gene knocked down": "CMPK1", "robust z-score, siRNA alone": 0.473}
{"gene knocked down": "CDC42BPA", "robust z-score, siRNA alone": 0.473}
{"gene knocked down": "TSSK1B", "robust z-score, siRNA alone": 0.473}
{"gene knocked down": "PHKB", "robust z-score, siRNA alone": 0.203}
{"gene knocked down": "ERN1", "robust z-score, siRNA alone": -0.048}
{"gene knocked down": "NME3", "robust z-score, siRNA alone": 0.473}
{"gene knocked down": "WHR1", "robust z-score, siRNA alone": 0.473}
{"gene knocked down": "PRKAR2B", "robust z-score, siRNA alone": -1.81}
{"gene knocked down": "RBM10", "robust z-score, siRNA alone": 0.473}
{"gene knocked down": "MUSK", "robust z-score, siRNA alone": -2.89}
{"gene knocked down": "RBKS", "robust z-score, siRNA alone": 0.473}
{"gene knocked down": "MAP3K9", "robust z-score, siRNA alone": -0.463}
{"gene knocked down": "PTK2", "robust z-score, siRNA alone": "-3.21 (active)"}
{"gene knocked down": "ADK", "robust z-score, siRNA alone": 0.473}
{"gene knocked down": "FLT3", "robust z-score, siRNA alone": 0.473}
{"gene knocked down": "PKN1", "robust z-score, siRNA alone": 0.473}
{"gene knocked down": "LCK", "robust z-score, siRNA alone": -1.35}
{"gene knocked down": "MAP4K4", "robust z-score, siRNA alone": 0.473}
{"gene knocked down": "NME7", "robust z-score, siRNA alone": 0.473}
{"gene knocked down": "CLK2", "robust z-score, siRNA alone": 0.473}
{"gene knocked down": "NME6", "robust z-score, siRNA alone": 0.473}
{"gene knocked down": "OBSCN", "robust z-score, siRNA alone": 0.473}
{"gene knocked down": "TCF7L2", "robust z-score, siRNA alone": 0.473}
{"gene knocked down": "LMBR1", "robust z-score, siRNA alone": 0.473}
{"gene knocked down": "PFKM", "robust z-score, siRNA alone": -0.585}
{"gene knocked down": "MED24", "robust z-score, siRNA alone": -0.384}
{"gene knocked down": "GATA3", "robust z-score, siRNA alone": 0.473}
{"gene knocked down": "GK", "robust z-score, siRNA alone": -0.215}
